From the supplement of paper PMC10849652
The other results are listed elsewhere or left out.

Protein sequences, listed by entry. Tags and fused reporters are not part of them. Lines headed by an entry give the natural chain unless they say otherwise; changes in a name come on top.
UniProt Q8NEZ2: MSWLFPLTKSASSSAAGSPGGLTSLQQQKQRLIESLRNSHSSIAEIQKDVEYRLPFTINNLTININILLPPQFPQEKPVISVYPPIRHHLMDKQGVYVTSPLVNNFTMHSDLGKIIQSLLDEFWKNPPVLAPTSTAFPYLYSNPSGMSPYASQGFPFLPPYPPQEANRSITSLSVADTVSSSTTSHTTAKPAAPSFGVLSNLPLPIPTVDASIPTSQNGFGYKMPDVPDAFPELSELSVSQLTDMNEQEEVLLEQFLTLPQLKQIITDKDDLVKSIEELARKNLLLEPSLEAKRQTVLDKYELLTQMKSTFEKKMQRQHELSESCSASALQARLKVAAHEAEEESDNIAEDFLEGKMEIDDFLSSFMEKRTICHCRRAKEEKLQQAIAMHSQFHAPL
UniProt O43379: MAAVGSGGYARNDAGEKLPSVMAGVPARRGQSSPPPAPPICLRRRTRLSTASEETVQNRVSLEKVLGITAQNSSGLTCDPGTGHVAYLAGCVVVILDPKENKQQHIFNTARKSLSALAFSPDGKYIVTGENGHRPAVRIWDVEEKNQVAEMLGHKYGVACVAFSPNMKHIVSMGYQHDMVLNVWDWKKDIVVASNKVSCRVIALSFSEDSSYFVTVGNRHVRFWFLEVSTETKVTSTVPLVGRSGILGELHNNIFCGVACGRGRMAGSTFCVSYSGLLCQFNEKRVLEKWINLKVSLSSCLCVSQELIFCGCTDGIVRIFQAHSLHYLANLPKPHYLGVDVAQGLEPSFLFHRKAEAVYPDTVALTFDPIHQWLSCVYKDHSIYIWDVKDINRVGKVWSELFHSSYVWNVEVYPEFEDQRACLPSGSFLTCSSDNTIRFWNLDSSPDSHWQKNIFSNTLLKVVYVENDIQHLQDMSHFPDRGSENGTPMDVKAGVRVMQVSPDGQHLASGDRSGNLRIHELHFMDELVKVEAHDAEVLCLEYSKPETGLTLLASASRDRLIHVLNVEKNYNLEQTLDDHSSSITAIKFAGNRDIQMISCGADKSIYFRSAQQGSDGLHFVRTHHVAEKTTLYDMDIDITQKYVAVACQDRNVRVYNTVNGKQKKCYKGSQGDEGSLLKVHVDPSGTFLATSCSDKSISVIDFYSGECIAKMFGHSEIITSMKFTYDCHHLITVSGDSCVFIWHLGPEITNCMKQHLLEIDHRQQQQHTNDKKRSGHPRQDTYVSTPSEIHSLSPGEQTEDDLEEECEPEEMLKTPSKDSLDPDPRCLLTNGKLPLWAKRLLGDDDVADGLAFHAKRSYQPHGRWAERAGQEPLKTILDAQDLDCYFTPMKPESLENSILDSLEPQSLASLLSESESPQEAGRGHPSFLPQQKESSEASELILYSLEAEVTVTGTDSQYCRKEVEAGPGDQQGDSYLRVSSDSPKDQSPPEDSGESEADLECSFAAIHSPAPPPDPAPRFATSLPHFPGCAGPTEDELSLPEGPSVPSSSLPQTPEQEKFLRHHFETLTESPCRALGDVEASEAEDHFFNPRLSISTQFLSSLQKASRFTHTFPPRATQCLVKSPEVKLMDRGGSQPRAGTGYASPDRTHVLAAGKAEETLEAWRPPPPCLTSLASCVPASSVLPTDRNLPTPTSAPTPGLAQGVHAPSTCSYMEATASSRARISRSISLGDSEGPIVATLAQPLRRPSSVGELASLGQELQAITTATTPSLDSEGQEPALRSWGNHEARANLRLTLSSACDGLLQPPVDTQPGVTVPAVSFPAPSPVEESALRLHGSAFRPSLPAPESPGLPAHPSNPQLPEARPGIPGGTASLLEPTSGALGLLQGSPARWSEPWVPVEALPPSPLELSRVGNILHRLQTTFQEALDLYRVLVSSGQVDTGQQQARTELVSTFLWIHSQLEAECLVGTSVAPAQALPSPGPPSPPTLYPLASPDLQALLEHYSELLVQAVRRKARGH
UniProt O94967: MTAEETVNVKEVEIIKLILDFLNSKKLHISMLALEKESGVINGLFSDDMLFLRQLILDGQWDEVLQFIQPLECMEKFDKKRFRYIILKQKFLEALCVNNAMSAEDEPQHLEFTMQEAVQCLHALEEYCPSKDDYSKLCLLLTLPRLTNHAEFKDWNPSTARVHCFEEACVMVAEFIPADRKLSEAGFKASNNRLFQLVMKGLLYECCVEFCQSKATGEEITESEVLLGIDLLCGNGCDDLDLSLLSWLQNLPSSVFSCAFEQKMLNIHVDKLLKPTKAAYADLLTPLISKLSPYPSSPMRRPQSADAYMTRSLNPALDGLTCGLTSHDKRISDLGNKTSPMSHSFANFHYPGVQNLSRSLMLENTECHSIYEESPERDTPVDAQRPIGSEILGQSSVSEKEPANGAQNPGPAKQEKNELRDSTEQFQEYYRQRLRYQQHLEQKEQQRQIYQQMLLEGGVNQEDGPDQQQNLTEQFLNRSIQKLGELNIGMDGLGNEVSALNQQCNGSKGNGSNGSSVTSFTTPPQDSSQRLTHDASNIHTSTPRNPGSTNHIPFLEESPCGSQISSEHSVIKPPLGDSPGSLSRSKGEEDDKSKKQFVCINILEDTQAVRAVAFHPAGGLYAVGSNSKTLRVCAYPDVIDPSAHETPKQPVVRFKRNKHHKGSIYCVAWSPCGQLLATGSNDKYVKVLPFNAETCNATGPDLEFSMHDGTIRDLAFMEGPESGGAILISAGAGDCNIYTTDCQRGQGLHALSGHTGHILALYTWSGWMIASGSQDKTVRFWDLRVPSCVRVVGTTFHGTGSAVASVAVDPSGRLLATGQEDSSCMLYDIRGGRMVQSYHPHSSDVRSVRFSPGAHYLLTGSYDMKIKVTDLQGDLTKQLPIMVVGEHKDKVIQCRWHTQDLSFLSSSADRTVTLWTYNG
UniProt Q9H1Z4: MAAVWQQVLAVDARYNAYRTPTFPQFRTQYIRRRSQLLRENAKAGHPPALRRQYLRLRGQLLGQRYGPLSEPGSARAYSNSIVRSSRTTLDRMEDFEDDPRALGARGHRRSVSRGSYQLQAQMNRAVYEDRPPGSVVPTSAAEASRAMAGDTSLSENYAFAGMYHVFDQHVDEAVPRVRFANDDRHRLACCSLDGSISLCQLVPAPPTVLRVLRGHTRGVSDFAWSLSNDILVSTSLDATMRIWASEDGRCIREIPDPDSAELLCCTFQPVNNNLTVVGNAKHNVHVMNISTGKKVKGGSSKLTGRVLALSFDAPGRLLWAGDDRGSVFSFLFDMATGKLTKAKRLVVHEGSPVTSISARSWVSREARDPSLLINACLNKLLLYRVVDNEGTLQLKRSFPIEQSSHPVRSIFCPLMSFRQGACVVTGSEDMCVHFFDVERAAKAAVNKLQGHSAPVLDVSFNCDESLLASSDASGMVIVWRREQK
UniProt Q9BUR4: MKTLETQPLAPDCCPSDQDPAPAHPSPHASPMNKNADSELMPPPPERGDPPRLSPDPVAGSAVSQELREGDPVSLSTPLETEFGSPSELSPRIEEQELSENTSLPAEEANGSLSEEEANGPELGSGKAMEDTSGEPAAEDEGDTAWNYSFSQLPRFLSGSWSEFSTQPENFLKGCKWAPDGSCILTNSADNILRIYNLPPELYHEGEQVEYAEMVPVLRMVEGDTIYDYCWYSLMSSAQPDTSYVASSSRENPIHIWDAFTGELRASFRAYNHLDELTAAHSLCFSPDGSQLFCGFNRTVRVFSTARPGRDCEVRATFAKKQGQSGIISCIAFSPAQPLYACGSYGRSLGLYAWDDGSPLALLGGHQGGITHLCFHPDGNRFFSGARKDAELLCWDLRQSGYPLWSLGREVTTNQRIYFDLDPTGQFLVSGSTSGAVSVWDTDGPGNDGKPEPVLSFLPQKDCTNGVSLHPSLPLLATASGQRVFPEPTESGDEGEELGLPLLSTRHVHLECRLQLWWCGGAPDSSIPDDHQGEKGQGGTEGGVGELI
UniProt Q96AJ9: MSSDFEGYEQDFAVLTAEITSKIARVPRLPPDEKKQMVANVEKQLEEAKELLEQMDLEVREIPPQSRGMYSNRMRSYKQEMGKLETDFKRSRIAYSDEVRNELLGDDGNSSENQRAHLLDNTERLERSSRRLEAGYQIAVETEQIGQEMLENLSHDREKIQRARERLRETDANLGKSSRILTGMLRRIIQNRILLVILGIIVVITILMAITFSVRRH
UniProt Q9Y277: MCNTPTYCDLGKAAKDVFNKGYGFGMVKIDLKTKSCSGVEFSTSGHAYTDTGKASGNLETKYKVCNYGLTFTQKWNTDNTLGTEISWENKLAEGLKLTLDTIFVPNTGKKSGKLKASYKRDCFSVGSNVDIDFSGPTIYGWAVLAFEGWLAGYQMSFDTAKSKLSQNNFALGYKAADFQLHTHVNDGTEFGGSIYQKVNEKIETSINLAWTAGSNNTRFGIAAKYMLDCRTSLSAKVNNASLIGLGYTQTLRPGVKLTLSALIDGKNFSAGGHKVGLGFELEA
UniProt Q8NI36: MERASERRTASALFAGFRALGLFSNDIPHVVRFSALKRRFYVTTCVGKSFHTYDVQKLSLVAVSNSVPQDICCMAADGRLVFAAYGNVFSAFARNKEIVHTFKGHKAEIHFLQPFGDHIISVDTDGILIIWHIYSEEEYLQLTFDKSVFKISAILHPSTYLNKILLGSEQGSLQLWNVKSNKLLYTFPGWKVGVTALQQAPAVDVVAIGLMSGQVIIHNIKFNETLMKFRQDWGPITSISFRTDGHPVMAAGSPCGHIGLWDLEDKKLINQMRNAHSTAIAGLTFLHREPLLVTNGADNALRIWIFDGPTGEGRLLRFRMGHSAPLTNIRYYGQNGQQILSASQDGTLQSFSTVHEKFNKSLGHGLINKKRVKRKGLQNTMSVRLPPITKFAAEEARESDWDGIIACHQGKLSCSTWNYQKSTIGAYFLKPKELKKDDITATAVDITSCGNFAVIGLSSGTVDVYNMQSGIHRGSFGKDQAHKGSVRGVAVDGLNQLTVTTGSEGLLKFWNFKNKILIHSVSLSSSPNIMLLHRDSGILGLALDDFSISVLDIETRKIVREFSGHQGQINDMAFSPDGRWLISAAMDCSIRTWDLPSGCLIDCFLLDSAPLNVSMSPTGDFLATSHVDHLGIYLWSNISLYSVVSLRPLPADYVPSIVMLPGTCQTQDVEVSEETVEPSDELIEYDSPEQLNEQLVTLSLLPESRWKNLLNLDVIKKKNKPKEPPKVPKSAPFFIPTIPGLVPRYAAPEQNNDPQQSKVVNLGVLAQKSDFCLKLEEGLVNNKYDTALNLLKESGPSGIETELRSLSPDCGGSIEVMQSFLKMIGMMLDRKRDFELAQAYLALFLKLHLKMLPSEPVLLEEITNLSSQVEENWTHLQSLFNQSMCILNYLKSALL
UniProt P04004: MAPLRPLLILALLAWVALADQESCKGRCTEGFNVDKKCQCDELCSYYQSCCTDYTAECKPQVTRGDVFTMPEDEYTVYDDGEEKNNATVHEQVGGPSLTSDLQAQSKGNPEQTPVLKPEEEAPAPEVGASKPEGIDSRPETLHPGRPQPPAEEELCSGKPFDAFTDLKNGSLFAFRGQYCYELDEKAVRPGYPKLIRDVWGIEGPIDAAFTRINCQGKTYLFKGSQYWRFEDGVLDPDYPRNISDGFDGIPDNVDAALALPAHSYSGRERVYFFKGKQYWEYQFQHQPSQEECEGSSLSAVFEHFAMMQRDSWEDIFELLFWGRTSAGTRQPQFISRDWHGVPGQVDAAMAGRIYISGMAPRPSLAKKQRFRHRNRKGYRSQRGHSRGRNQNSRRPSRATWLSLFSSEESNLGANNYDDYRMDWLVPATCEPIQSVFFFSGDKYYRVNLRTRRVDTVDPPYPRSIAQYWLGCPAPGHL
UniProt Q9BQA1, whole entry, looked up: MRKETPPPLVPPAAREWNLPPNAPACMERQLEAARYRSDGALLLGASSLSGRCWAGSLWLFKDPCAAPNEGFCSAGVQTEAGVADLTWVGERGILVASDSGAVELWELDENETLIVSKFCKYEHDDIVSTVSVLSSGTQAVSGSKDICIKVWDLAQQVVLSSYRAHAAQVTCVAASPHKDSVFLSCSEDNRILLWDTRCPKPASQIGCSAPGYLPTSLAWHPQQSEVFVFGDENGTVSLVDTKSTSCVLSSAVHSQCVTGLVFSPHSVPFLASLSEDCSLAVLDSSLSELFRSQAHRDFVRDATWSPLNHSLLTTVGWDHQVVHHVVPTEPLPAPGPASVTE
UniProt Q5MNZ9: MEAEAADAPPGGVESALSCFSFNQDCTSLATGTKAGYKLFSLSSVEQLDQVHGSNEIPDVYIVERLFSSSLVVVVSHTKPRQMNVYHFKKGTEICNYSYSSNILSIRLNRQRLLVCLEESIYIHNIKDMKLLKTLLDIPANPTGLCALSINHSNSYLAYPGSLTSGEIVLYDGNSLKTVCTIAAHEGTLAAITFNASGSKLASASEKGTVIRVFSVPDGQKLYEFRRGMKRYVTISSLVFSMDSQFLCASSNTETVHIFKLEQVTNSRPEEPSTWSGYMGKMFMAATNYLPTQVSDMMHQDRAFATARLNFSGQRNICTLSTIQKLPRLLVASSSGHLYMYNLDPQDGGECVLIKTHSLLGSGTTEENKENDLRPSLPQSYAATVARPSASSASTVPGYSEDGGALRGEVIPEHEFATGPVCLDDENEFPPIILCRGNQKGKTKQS

Legend:
Assay in all cases: log2 fold change, soluble protein after heating vs DMSO (PISA); higher = thermal stabilisation; K562 cells, 10 uM, 30 min; active = over 0.2 and 3.5 SD of the protein, either way, in both replicates (recomputed)
[1] = compound: COC1=CC=C(C=C1)CN2C=CC3=C2C=C(C=C3)C(=O)NO
How it was run: (§1)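 Values are thermal stability changes relative to control samples and are taken from duplicates. They are stated as log2 fold changes. Before quantification by TMTpro 16plex LC-MS/MS with equalised channel sums, K562 cells at 2×10^6 cells/mL were treated with 10 μM compound for 30 min, heated in aliquots for 3 min across 48°C-58°C, pooled, extracted in PBS with 0.5% NP-40 at 4°C, and centrifuged at 21,000xg for 90 min to give the soluble supernatant.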

[2] = compound: CON(C)C(=O)N1N=C(c2cc(F)ccc2F)S[C@@]1(CCCN)c1ccccc1 [filanesib]
How it was run: as §1

[3] = compound: CO[C@H]1C[C@@H]2CC[C@@H](C)[C@@](O)(O2)C(=O)C(=O)N2CCCC[C@H]2C(=O)O[C@H]([C@H](C)C[C@@H]2CC[C@H](n3cnnn3)[C@H](OC)C2)CC(=O)[C@H](C)/C=C(\C)[C@@H](O)[C@@H](OC)C(=O)[C@H](C)C[C@H](C)/C=C/C=C/C=C/1C [zotarolimus]
How it was run: as §1

[4] = compound: COc1cc(C(=O)O)ccc1NC(=O)[C@@H]1N[C@@H](CC(C)(C)C)[C@](C#N)(c2ccc(Cl)cc2F)[C@H]1c1cccc(Cl)c1F [idasanutlin]
How it was run: as §1

[5] = compound: COc1cc(Nc2ncc3c(n2)-c2ccc(Cl)cc2C(c2c(F)cccc2OC)=NC3)ccc1C(=O)O [alisertib]
How it was run: as §1

[6] = compound: COc1cc2nc(-c3cc(F)ccc3O)nc(N[C@@H]3CNC[C@H]3C(C)(C)O)c2cc1OC
How it was run: as §1

[7] = compound: COc1cc2ncnc(Nc3ccc(F)c(Cl)c3)c2cc1OCCCN1CCOCC1 [gefitinib]
How it was run: as §1

[8] = compound: COc1cccc2cc(-c3nc([C@H]4CC[C@H](C(=O)O)CC4)n4ncnc(N)c34)[nH]c12
How it was run: as §1

[9] = compound: CS(=O)(=O)CCNCc1ccc(-c2ccc3ncnc(Nc4ccc(OCc5cccc(F)c5)c(Cl)c4)c3c2)o1 [lapatinib]
How it was run: as §1

[10] = compound: CS(=O)(=O)N1CCN(Cc2cc3nc(-c4cccc5[nH]ncc45)nc(N4CCOCC4)c3s2)CC1 [pictilisib]
How it was run: as §1

Measured: log2 fold change

WEE1 (UniProt P30291)
inactive: [1] -0.157 | [2] 0.217 | [3] -0.068 | [4] 0.356 | [5] -0.322 | [6] 0.039 | [7] -0.083 | [8] -0.615 | [9] 0.125 | [10] -0.095

VPS37A (UniProt Q8NEZ2)
inactive: [1] -0.046 | [2] -0.011 | [3] 0.107 | [4] 0.002 | [5] -0.054 | [6] 0.001 | [7] 0.05 | [8] 0.024 | [9] -0.035 | [10] 0.058

WASF2 (UniProt Q9Y6W5)
inactive: [1] 0.005 | [2] 0.05 | [3] -0.045 | [4] 0.026 | [5] -0.061 | [6] -0.023 | [7] -0.013 | [8] -0.013 | [9] 0.004 | [10] -0.04

VPS29 isoform 2 (UniProt Q9UBQ0)
inactive: [1] 0 | [2] -0.057 | [3] -0.007 | [4] -0.01 | [5] -0.047 | [6] -0.02 | [7] -0.008 | [8] 0.057 | [9] -0.008 | [10] -0.081

WDR62 isoform 4 (UniProt O43379)
inactive: [1] -0.036 | [2] 0.016 | [3] 0.028 | [4] 0.02 | [5] -0.024 | [6] -0.026 | [7] 0.049 | [8] 0.046 | [9] 0.054 | [10] 0.015

VPS39 (UniProt Q96JC1)
inactive: [1] -0.038 | [2] -0.119 | [3] 0.023 | [4] -0.028 | [5] -0.012 | [6] 0.021 | [7] 0.051 | [8] -0.059 | [9] -0.012 | [10] -0.035

WDR37 isoform 2 (UniProt Q9Y2I8)
inactive: [1] 0.033 | [2] 0.117 | [3] -0.063 | [4] 0.081 | [5] -0.018 | [6] 0.034 | [7] -0.006 | [8] -0.029 | [9] 0.035 | [10] 0.046

WDR47 (UniProt O94967)
inactive: [1] 0.057 | [2] -0.014 | [3] -0.006 | [4] -0.071 | [5] 0.21 | [6] -0.029 | [7] -0.001 | [8] 0.061 | [9] -0.007 | [10] 0.077

WDR20 isoform 7 (UniProt Q8TBZ3)
inactive: [1] -0.051 | [2] 0.074 | [3] -0.004 | [4] 0.048 | [5] 0.123 | [6] -0.065 | [7] -0.008 | [8] -0.154 | [9] 0.011 | [10] 0.067

WDR13 (UniProt Q9H1Z4)
inactive: [1] -0.056 | [2] 0.034 | [3] 0.095 | [4] -0.09 | [5] -0.057 | [6] -0.037 | [7] 0.095 | [8] 0.032 | [9] 0.012 | [10] 0.128

WWP2 (UniProt O00308)
inactive: [1] -0.351

VPS35 (UniProt Q96QK1)
inactive: [1] 0.14 | [2] -0.112 | [3] 0.008 | [4] -0.059 | [5] -0.074 | [6] 0.01 | [7] -0.003 | [8] 0.002 | [9] -0.001 | [10] 0.011

2 consecutive entries already listed, quoted:
WDR47 (UniProt O94967)
inactive: [1] 0.057 | [2] -0.014 | [3] -0.006 | [4] -0.071 | [5] 0.21 | [6] -0.029 | [7] -0.001 | [8] 0.061 | [9] -0.007 | [10] 0.077

WDR20 isoform 7 (UniProt Q8TBZ3)
inactive: [1] -0.051 | [2] 0.074 | [3] -0.004 | [4] 0.048 | [5] 0.123 | [6] -0.065 | [7] -0.008 | [8] -0.154 | [9] 0.011 | [10] 0.067

Continuation:

VPS26A (UniProt O75436)
inactive: [1] 0.013 | [2] -0.072 | [3] 0.011 | [4] -0.149 | [5] -0.066 | [6] -0.01 | [7] -0.045 | [8] 0.044 | [9] 0.03 | [10] -0.057

VPS51 (UniProt Q9UID3)
inactive: [1] 0.029 | [2] -0.024 | [3] -0.01 | [4] -0.098 | [5] -0.092 | [6] 0.055 | [7] 0.019 | [8] -0.057 | [9] -0.032 | [10] 0.013

WRAP53 (UniProt Q9BUR4)
inactive: [1] 0.013 | [2] 0.012 | [3] -0.005 | [4] -0.123 | [5] -0.053 | [6] 0.051 | [7] -0.013 | [8] 0.26 | [9] -0.045 | [10] 0.075

VTI1A (UniProt Q96AJ9)
inactive: [1] 0.014 | [2] -0.015 | [3] -0.024 | [4] -0.023 | [5] -0.039 | [6] -0.003 | [7] 0.024 | [8] 0 | [9] 0.021 | [10] -0.022

WDR26, A0A499FIZ0
inactive: [1] -0.062 | [2] -0.036 | [3] -0.016 | [4] 0.019 | [5] -0.013 | [6] -0.039 | [7] 0.028 | [8] 0.01 | [9] 0.092 | [10] 0.01

VDAC3 (UniProt Q9Y277)
inactive: [1] -0.042 | [2] -0.041 | [3] -0.024 | [4] -0.066 | [5] -0.005 | [6] 0.011 | [7] 0.003 | [8] 0.056 | [9] -0.022 | [10] 0.015

WDR36 (UniProt Q8NI36)
inactive: [1] -0.032 | [2] 0.293 | [3] 0.008 | [4] 0.134 | [5] -0.075 | [6] 0.157 | [7] -0.036 | [8] -0.086 | [9] 0.025 | [10] -0.028

VPS33A (UniProt Q96AX1)
inactive: [1] 0.018 | [2] -0.096 | [3] 0.033 | [4] -0.039 | [5] -0.037 | [6] 0.014 | [7] -0.033 | [8] -0.039 | [9] 0.015 | [10] -0.083

VTN (UniProt P04004)
inactive: [1] -0.06 | [2] 0.241 | [3] -0.056 | [4] 0.006 | [5] -0.14 | [6] 0.076 | [7] -0.023 | [8] 0.2 | [9] -0.11

VPS13C (UniProt Q709C8)
inactive: [1] -0.064 | [2] -0.13 | [3] 0.004 | [4] -0.03 | [5] -0.036 | [6] -0.001 | [7] -0.011 | [8] 0.048 | [9] 0.011 | [10] 0.006

WDR77 (UniProt Q9BQA1)
inactive: [1] -0.009 | [2] -0.019 | [3] 0.009 | [4] -0.033 | [5] -0.129 | [6] -0.001 | [7] 0.039 | [8] 0.038 | [9] 0.024 | [10] -0.013

WRNIP1 (UniProt Q96S55)
inactive: [1] 0.01 | [2] -0.137 | [3] -0.002 | [4] -0.056 | [5] 0.078 | [6] 0.007 | [7] -0.1 | [8] 0.086 | [9] -0.02 | [10] 0

WDCP (UniProt Q9H6R7)
inactive: [1] -0.028 | [2] -0.029 | [3] 0.094 | [4] -0.049 | [5] -0.074 | [6] 0.072 | [7] -0.061 | [8] -0.049 | [9] -0.037 | [10] 0.126

WDR18 (UniProt Q9BV38)
inactive: [1] -0.04 | [2] 0.02 | [3] -0.024 | [4] 0.039 | [5] -0.041 | [6] 0.056 | [7] 0.024 | [8] 0.035 | [9] 0.005 | [10] -0.004

VPS13D (UniProt Q5THJ4)
inactive: [1] -0.044 | [2] 0.012 | [3] -0.08 | [4] 0.001 | [5] 0.007 | [6] 0.052 | [7] -0.072 | [8] 0.084 | [9] -0.08 | [10] 0.032

VWA5A (UniProt O00534)
inactive: [1] -0.035 | [2] -0.006 | [3] 0.043 | [4] -0.028 | [5] -0.038 | [6] 0.017 | [7] 0.017 | [8] 0.047 | [9] -0.045 | [10] -0.045

WIPI1 (UniProt Q5MNZ9)
inactive: [1] -0.031 | [2] -0.054 | [3] -0.086 | [4] -0.096 | [5] 0.028 | [6] 0.006 | [7] 0.174 | [8] 0.002 | [9] -0.063 | [10] 0.01

WBP2 (UniProt Q969T9)
inactive: [1] 0.036 | [2] -0.159 | [3] -0.012 | [4] 0.022 | [5] -0.014 | [6] -0.035 | [7] -0.013 | [8] 0 | [9] 0.017 | [10] 0.005
